Measurements reported in the supplement of paper PMC12819154, “High-throughput peptide-centric local stability assay extends protein–ligand identification to membrane proteins, tissues and bacteria” (Nature Structural & Molecular Biology, 2025).
This is one part of the list. Most entries show no effect beyond the scatter of the controls.

The chains behind the UniProt entries cited, without tags or fusion partners. Where a name states a change or a piece, a line headed by the entry shows the natural chain unless it says otherwise.
UniProt Q8BVQ5: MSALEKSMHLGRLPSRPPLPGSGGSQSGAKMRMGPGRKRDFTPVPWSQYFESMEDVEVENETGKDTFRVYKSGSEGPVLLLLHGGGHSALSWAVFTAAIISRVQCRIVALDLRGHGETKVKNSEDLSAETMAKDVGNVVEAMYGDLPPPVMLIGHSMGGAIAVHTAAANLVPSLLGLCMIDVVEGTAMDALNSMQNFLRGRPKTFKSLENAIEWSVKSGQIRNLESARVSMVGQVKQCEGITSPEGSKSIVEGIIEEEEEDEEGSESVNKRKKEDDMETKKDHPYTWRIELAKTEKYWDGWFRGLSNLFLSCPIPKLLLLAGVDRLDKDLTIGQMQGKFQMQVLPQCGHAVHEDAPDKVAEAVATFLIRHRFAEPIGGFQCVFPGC
UniProt Q8C190: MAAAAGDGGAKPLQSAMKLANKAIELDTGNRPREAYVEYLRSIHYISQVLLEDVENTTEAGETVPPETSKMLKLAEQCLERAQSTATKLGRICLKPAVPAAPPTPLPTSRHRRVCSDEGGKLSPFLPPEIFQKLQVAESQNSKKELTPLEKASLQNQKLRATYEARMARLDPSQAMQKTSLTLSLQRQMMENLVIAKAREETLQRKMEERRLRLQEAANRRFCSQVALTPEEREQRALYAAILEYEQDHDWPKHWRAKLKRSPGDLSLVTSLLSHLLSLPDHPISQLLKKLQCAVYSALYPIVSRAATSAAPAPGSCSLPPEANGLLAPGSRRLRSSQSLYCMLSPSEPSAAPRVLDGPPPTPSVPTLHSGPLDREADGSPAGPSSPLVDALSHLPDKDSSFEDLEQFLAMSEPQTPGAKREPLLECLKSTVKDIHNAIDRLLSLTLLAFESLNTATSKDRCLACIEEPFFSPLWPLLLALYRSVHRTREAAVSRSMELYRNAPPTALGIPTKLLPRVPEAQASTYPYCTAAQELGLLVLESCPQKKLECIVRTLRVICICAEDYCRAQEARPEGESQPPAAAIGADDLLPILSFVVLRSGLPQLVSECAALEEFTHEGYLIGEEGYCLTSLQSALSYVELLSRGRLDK
UniProt Q8BWL5: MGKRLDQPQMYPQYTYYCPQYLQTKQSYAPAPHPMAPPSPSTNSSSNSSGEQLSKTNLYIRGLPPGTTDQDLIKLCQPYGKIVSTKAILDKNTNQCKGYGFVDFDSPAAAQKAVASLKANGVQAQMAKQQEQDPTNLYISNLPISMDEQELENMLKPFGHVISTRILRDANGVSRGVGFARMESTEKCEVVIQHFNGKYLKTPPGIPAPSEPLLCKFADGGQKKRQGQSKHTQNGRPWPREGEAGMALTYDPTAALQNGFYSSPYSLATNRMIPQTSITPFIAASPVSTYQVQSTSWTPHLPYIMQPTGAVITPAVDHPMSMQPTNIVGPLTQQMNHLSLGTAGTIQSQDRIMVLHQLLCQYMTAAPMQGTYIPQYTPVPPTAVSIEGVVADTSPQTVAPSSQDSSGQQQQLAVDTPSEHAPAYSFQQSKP
UniProt Q8C0Y0: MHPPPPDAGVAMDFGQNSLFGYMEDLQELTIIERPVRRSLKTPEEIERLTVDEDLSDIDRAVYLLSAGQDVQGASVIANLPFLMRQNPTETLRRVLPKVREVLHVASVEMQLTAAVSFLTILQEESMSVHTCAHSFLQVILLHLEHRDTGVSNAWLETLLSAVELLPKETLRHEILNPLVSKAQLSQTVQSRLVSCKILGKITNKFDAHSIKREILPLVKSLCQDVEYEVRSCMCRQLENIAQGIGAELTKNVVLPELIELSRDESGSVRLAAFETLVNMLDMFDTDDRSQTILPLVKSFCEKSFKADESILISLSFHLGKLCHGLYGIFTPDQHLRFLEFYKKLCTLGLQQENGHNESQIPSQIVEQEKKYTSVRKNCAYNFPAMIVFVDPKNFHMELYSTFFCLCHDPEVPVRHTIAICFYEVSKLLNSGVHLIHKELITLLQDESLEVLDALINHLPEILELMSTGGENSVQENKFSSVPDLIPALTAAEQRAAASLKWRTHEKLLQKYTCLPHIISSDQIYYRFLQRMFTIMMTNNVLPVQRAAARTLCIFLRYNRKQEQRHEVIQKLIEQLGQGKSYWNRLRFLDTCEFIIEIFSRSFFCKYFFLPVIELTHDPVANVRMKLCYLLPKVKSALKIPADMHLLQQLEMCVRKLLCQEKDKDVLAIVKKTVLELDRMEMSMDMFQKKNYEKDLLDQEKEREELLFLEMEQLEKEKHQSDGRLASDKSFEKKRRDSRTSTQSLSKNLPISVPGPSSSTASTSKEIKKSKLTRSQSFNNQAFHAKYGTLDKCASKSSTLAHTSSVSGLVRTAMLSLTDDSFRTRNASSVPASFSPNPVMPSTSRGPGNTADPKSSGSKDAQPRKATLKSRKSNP
UniProt Q8C0D0: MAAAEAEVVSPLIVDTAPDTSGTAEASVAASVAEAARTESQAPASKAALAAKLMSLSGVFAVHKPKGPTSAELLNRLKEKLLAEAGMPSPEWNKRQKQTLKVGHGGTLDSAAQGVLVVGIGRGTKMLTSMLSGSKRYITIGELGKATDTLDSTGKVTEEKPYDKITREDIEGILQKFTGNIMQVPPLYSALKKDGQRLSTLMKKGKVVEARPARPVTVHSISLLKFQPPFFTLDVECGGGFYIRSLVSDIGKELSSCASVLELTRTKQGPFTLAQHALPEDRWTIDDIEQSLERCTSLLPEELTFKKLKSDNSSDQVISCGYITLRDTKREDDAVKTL
UniProt Q8BXC6, whole entry: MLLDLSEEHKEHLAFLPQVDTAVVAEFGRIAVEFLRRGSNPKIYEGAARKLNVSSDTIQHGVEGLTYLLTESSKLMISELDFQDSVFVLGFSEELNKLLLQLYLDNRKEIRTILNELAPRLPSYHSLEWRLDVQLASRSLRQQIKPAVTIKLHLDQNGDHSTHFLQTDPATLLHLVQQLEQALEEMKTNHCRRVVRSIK
UniProt Q8C0X8: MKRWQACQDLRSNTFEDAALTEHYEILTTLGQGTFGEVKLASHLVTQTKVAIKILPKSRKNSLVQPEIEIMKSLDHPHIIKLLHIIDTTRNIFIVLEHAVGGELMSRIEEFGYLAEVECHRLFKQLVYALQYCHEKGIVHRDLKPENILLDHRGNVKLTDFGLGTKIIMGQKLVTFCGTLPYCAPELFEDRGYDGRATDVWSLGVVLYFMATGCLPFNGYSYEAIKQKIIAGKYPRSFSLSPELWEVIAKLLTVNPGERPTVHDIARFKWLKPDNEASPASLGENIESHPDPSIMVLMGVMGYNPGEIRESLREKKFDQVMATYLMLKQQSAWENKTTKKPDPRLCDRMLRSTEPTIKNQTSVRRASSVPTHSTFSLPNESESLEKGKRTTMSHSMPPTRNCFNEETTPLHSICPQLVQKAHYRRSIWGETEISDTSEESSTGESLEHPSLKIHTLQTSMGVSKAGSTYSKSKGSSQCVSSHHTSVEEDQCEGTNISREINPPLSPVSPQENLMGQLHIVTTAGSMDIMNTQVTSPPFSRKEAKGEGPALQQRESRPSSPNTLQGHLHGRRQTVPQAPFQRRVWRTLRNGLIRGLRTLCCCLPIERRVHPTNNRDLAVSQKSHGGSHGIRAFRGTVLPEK
UniProt Q8C156, whole entry: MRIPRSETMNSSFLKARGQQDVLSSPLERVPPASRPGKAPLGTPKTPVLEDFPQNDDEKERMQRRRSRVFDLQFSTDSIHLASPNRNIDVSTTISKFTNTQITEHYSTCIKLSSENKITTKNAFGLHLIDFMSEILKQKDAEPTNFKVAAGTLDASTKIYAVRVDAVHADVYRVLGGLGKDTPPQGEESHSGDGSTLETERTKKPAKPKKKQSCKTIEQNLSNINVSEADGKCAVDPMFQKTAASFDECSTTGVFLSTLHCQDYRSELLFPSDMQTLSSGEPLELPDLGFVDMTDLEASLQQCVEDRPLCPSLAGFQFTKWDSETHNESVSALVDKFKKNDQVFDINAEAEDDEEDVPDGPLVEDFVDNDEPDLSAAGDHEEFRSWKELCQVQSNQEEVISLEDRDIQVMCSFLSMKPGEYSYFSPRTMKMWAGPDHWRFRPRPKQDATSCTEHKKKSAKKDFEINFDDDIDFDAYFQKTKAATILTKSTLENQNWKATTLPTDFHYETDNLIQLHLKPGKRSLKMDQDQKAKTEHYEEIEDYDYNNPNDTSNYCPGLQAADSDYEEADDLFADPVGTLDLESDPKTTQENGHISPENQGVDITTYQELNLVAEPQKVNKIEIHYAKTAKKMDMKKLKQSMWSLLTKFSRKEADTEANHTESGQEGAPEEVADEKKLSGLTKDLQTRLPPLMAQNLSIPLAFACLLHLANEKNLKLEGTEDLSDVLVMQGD
UniProt Q8C3Q9: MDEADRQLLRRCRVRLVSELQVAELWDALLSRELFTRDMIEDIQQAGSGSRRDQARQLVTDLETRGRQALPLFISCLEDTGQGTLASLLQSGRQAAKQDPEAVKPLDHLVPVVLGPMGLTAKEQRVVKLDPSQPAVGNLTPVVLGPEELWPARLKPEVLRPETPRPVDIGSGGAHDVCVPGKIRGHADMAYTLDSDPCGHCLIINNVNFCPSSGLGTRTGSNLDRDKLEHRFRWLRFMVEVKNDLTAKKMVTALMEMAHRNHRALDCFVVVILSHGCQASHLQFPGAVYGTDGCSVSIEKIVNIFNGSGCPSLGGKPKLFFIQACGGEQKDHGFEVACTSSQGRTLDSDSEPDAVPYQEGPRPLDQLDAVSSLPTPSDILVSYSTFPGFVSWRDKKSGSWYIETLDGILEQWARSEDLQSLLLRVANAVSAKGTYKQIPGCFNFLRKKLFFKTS
UniProt Q8BZ03: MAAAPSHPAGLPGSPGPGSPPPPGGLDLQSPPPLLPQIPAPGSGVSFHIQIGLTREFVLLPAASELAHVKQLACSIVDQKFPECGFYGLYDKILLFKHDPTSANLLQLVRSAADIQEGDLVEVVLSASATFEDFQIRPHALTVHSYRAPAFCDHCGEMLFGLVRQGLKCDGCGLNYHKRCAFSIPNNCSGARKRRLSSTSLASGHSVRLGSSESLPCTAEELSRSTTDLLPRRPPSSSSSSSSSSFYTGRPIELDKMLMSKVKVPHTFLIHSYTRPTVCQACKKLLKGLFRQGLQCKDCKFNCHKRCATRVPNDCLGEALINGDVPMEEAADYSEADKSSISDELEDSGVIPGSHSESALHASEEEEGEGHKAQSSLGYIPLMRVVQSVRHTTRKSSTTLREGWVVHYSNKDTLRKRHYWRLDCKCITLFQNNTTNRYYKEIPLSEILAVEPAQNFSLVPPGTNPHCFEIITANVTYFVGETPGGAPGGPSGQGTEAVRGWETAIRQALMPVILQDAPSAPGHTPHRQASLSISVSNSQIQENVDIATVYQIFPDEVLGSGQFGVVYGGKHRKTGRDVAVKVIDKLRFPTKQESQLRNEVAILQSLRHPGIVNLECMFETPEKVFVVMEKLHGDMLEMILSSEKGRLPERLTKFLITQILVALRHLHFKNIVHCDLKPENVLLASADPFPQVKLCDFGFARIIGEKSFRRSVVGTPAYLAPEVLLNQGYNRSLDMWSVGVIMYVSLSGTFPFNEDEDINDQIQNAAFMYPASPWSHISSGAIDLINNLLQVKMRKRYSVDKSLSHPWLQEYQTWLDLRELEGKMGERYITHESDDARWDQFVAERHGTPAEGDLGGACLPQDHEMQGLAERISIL
UniProt Q8BZJ7: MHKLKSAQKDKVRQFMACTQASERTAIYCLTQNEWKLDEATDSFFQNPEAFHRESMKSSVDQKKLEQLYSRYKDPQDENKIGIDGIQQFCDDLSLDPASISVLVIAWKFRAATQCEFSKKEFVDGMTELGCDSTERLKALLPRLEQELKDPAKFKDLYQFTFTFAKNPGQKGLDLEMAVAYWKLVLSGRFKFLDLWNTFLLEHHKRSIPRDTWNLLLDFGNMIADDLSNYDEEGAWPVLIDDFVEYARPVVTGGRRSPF
UniProt Q8BVL3: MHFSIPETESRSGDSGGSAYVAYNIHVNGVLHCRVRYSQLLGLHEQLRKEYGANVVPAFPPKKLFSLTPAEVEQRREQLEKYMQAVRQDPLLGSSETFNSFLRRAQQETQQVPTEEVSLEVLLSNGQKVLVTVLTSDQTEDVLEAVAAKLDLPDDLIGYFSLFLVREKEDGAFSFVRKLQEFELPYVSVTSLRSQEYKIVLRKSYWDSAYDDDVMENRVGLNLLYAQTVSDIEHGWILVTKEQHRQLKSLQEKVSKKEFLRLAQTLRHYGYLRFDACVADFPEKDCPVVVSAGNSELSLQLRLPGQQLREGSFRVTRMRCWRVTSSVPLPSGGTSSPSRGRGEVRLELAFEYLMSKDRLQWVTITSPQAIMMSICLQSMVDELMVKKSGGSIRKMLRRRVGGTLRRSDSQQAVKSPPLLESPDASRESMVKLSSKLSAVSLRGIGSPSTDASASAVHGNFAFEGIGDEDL
UniProt Q8BVH9: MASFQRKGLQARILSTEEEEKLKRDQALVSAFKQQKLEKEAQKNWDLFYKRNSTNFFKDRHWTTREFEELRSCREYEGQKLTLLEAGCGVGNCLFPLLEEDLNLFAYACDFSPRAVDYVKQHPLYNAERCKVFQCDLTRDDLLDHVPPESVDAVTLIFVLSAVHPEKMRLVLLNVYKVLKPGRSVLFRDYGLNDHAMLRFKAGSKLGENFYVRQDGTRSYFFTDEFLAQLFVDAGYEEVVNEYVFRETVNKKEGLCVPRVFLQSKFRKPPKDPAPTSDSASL

Compound: CN[C@@H]1C[C@H]2O[C@@](C)([C@@H]1OC)n1c3ccccc3c3c4c(c5c6ccccc6n2c5c31)C(=O)NC4 [staurosporine]
Test: log2 fold change of tryptic peptide abundance, ligand vs vehicle (limited proteolysis) (log2 ratio); higher = more trypsin-susceptible (destabilized)
Details: ligand concentration: 20 uM; sample: mouse liver crude lysate; replicate design: treated separately

Target	log2 fold change
UniProt Q8BVQ5 (peptide sequence: NSEDLSAETMAK, peptide start residue: 122)	-0.5
UniProt Q8C190 (peptide sequence: TSLTLSLQR, peptide start residue: 179)	0.402
UniProt Q8BZK4 (peptide sequence: EKKSEEHVEDLTDVSVHLR, peptide start residue: 453)	0.323
UniProt Q8C5P7 (peptide sequence: LTAEDVVADHTEDDR, peptide start residue: 110)	-0.277
UniProt Q8BWL5 (peptide sequence: AILDKNTNQCK, peptide start residue: 87)	0.269
UniProt Q8BX02 (peptide sequence: ASQAGQTALMLAVSHGR, peptide start residue: 727)	-0.591
UniProt Q8C0Y0 (peptide sequence: YGTLDKCASK, peptide start residue: 787)	-0.563
UniProt Q8C0D0 (peptide sequence: GPTSAELLNR, peptide start residue: 67)	-0.274
UniProt Q8BXC6 (peptide sequence: LDVQLASR, peptide start residue: 131)	0.105
UniProt Q8C129 (peptide sequence: LLGMSFMNR, peptide start residue: 76)	-0.0529
UniProt Q8C0X8 (peptide sequence: IIAGKYPR, peptide start residue: 229)	-0.194
UniProt Q8C156 (peptide sequence: VDAVHADVYR, peptide start residue: 164)	0.0359
UniProt Q8C9X6 (peptide sequence: ALDASKPLPVFR, peptide start residue: 10)	0.787
UniProt Q8C3Q9 (peptide sequence: MVTALMEMAHR, peptide start residue: 250)	0.851
UniProt Q8C033 (peptide sequence: KEDAIRAADR, peptide start residue: 775)	-0.335
UniProt Q8BYK4 (peptide sequence: LANLLFTR, peptide start residue: 205)	-0.146
UniProt Q8BZ03 (peptide sequence: YITHESDDAR, peptide start residue: 828)	-0.402
UniProt Q8BZJ7 (peptide sequence: QFMACTQASER, peptide start residue: 14)	0.0893
UniProt Q8BVL3 (peptide sequence: YSQLLGLHEQLRK, peptide start residue: 37)	0.291
UniProt Q8C525 (peptide sequence: SISVFINPDDVTRPHFR, peptide start residue: 406)	0.0833
UniProt Q8BVH9 (peptide sequence: NWDLFYKR, peptide start residue: 44)	0.235
UniProt Q8C0L6 (peptide sequence: TFYSTTHGALLSGWR, peptide start residue: 470)	-0.293
UniProt Q8C5S7 (peptide sequence: AADEEERR, peptide start residue: 435)	-0.165

Some of the entries so far, bar-delimited.
Target | log2 fold change
UniProt Q8C190 (peptide sequence: TSLTLSLQR, peptide start residue: 179) | 0.402
UniProt Q8C3Q9 (peptide sequence: MVTALMEMAHR, peptide start residue: 250) | 0.851
